From the supplement of paper PMC10849652
The other results are listed elsewhere or left out.

Chains of the proteins cited; added tags and fusions are not shown. Lines headed by an entry give the natural chain unless they say otherwise; changes in a name come on top.
UniProt Q15723: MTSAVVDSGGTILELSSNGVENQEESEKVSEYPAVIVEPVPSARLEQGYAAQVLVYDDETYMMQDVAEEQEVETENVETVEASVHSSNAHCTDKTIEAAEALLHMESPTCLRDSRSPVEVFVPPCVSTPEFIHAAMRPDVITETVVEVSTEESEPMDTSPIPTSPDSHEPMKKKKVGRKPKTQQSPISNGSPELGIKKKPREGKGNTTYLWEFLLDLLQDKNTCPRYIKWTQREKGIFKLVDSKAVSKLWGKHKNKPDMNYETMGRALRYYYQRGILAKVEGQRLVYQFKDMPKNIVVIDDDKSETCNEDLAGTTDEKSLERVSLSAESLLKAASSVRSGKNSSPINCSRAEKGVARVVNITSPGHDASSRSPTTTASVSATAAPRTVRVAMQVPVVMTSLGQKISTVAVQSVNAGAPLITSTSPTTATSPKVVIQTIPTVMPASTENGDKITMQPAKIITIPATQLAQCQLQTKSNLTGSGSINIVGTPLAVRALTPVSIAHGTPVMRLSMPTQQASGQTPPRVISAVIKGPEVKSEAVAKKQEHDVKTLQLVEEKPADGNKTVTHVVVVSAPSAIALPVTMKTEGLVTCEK
UniProt O00303, whole entry, looked up: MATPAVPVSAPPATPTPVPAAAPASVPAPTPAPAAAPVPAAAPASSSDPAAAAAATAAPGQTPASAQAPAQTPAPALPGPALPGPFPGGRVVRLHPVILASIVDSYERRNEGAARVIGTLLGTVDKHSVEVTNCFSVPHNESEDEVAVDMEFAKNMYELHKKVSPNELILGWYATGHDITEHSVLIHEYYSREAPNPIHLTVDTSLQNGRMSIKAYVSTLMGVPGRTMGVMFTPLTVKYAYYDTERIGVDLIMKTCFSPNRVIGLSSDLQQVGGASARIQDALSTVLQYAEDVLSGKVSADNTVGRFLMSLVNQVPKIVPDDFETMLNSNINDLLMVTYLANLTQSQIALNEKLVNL
UniProt P54760: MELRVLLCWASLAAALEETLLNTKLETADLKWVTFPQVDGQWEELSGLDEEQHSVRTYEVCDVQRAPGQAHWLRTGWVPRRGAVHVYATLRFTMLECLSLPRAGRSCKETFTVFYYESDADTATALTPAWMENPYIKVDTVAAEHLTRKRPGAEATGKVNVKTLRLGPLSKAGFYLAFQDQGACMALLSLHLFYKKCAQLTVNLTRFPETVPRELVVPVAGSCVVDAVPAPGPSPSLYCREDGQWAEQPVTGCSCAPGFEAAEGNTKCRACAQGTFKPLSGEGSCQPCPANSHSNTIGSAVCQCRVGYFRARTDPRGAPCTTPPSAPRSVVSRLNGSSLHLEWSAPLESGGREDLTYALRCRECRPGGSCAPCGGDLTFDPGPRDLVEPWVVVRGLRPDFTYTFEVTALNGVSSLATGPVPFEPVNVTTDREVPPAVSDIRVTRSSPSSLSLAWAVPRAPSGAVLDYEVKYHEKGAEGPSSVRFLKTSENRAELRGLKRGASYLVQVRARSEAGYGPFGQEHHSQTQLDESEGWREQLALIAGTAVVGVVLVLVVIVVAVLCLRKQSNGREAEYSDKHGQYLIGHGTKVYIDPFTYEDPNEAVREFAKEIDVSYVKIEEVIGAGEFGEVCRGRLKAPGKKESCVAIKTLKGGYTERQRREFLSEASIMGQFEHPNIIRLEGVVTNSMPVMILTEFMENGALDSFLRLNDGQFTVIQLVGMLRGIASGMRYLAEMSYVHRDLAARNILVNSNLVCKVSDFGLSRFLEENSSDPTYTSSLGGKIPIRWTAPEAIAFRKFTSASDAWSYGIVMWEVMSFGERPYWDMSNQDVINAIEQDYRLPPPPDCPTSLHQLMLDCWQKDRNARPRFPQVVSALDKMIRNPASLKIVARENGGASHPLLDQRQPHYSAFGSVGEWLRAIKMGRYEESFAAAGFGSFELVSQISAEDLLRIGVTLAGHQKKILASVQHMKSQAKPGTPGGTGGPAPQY
UniProt O43414: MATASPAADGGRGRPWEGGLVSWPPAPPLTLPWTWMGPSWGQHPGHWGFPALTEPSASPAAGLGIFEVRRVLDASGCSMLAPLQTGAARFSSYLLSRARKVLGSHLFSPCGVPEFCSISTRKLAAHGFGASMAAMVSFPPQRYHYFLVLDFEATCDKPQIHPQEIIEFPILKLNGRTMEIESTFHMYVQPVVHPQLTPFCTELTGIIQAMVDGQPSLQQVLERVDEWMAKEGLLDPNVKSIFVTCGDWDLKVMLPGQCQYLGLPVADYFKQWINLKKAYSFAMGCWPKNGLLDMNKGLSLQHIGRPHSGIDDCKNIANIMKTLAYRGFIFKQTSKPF
UniProt Q9H9T3: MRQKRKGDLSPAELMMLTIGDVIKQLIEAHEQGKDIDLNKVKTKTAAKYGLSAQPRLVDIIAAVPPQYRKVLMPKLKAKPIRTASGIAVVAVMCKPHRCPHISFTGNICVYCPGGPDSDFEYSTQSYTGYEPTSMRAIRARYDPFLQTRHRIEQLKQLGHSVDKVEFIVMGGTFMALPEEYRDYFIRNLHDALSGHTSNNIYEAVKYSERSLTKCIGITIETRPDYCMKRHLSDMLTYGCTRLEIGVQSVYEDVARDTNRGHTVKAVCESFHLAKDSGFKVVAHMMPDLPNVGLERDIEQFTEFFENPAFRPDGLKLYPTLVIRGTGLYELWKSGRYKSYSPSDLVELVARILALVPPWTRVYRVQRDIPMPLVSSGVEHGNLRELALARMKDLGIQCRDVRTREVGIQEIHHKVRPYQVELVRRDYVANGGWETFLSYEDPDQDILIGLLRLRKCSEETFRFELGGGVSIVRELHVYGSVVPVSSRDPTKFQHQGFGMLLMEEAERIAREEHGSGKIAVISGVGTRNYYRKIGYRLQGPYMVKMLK
UniProt Q96AY2: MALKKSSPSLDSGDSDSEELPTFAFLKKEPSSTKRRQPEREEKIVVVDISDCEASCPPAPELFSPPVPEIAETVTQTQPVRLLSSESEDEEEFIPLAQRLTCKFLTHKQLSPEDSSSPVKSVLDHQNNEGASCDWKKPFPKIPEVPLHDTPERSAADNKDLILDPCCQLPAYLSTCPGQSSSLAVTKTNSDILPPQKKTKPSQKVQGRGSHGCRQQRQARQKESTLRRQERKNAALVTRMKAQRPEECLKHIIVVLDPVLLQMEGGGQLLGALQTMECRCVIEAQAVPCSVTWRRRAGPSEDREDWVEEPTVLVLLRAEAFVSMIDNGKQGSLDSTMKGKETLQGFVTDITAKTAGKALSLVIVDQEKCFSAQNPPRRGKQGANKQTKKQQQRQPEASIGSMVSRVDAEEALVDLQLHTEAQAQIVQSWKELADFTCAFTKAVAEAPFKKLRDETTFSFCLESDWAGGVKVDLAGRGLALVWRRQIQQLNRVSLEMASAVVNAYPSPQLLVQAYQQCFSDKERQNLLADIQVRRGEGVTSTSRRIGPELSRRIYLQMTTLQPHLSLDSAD
UniProt Q03468, whole entry, looked up: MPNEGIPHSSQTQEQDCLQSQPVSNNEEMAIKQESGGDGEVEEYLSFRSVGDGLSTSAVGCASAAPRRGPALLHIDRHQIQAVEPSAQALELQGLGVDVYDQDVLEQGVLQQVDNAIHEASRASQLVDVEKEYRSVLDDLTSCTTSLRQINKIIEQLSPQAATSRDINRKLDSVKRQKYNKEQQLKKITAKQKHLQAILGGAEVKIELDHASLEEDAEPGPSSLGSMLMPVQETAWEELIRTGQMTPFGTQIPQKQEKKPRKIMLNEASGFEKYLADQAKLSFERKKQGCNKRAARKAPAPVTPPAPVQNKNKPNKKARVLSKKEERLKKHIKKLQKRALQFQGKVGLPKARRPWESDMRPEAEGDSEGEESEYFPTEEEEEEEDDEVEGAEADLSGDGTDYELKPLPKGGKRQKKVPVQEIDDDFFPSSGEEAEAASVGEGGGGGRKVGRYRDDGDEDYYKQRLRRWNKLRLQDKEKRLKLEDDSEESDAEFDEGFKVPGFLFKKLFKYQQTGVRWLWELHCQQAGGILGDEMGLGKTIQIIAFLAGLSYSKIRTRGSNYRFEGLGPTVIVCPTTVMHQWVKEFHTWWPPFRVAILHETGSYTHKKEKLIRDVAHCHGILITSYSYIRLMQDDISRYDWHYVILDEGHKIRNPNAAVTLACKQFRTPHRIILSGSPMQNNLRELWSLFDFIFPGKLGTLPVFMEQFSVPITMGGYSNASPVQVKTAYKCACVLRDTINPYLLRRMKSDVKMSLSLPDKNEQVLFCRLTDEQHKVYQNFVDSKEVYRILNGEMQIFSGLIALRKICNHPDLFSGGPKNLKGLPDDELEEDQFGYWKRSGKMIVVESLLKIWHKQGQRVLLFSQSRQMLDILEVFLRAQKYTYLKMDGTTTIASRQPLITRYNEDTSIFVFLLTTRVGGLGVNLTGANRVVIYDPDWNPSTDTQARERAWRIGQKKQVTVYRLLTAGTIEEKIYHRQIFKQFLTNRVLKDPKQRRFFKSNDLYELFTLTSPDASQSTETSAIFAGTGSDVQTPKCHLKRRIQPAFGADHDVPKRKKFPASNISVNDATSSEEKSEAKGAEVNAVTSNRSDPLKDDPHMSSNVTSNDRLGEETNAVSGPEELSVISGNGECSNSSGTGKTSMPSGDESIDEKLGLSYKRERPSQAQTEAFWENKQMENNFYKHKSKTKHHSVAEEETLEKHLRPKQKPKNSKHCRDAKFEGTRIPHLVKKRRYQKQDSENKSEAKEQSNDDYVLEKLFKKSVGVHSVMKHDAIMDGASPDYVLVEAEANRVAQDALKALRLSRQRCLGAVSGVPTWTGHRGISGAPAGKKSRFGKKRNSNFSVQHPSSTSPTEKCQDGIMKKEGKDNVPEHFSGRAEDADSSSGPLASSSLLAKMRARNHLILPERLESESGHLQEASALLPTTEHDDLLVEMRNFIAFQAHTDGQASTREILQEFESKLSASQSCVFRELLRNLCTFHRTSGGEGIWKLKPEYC
UniProt Q8IV48: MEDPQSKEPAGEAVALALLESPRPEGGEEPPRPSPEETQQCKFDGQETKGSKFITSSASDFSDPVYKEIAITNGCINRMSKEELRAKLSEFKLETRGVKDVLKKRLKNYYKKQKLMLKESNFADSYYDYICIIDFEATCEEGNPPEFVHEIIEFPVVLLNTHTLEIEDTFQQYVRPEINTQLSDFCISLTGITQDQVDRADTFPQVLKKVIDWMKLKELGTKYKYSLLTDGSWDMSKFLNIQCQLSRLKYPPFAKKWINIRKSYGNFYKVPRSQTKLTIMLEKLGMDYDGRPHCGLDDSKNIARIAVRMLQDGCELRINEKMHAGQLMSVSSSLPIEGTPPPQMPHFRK
UniProt O15371, whole entry, looked up: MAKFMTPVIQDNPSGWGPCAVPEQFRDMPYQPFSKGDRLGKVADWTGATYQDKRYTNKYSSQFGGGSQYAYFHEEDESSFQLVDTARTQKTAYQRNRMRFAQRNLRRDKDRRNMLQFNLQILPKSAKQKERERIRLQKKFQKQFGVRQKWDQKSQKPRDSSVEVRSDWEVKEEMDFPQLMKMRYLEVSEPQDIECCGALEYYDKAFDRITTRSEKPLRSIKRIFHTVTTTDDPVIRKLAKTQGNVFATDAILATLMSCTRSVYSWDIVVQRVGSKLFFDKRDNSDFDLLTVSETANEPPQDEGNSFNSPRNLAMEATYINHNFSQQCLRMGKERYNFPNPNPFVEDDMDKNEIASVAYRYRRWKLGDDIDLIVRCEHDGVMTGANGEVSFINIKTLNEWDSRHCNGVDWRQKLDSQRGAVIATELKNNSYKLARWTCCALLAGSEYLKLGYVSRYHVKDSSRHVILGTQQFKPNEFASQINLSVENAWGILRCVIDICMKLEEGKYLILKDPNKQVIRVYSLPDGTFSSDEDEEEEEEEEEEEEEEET

How the values were obtained:
Experiment in all cases: log2 fold change, soluble protein after heating vs DMSO (PISA); higher = thermal stabilisation; K562 lysate, 10 uM; active = over 0.2 and 3.5 SD of the protein, either way, in both replicates (recomputed)
[1] = compound: C1=CC=C(C=C1)[C@H](COC2=CC3=C(C=C2)NC(=O)N3)NC(=O)C4=CC=CN(C4=O)CC5=CC(=C(C=C5)F)F
Summary of the method: (§1)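 A 30 min treatment with 10 μM compound was applied to crude K562 extract at 1 mg/mL protein in PBS pH 7.4 with 1 mM MgCl2. Heating for 3 min spanned 48°C-58°C, after which aliquots were pooled, adjusted to 0.5% NP-40 at 4°C and spun at 21,000xg for 90 min. TMTpro 16plex LC-MS/MS of the supernatant, with channel sums equalised, gave values recorded as log-two fold change in thermal stability against solvent controls, from duplicates.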

[2] = compound: CC1=C(SC2=C1C(=N[C@H](C3=NN=C(N32)C)CC(=O)N)C4=CC=C(C=C4)Cl)C
Summary of the method: as §1

[3] = compound: CC1=C2C(=CC=C1)N=C(N(C2=O)C3=CC=CC=C3C)CN4C=NC5=C(N=CN=C54)N
Summary of the method: as §1

[4] = compound: Cc1sc2c(c1C)C(c1ccc(Cl)cc1)=N[C@@H](CC(=O)OC(C)(C)C)c1nnc(C)n1-2
Summary of the method: as §1

[5] = compound: c1ccc([C@@H]2C[C@H]2NC2CCNCC2)cc1
Summary of the method: as §1

Measured: log2 fold change

ELF2 (UniProt Q15723)
inactive: [1] -0.162 | [2] -0.074 | [3] 0.044 | [4] -0.005 | [5] 0.013

EIF3F (UniProt O00303)
inactive: [1] -0.013 | [2] -0.029 | [3] 0.034 | [4] 0.013 | [5] 0.037

EPHB4 (UniProt P54760)
inactive: [1] -0.05 | [2] 0.026 | [3] 0.111 | [4] -0.078 | [5] 0.029

ERI3 (UniProt O43414)
inactive: [1] -0.022 | [2] -0.03 | [3] -0.023 | [4] -0.016 | [5] -0.085

ELP3 (UniProt Q9H9T3)
inactive: [1] 0.017 | [2] 0.046 | [3] -0.002 | [4] 0.008 | [5] 0.032

EME1 isoform 2 (UniProt Q96AY2)
inactive: [1] 0.024 | [2] 0.045 | [3] 0.108 | [5] 0.193

ERCC6 (UniProt Q03468)
inactive: [1] -0.093 | [2] 0.026 | [3] 0.088 | [4] -0.09 | [5] 0.014

ERI1 (UniProt Q8IV48)
inactive: [1] 0.071 | [2] -0.061 | [3] -0.022 | [4] -0.015 | [5] 0.056

EIF3D (UniProt O15371)
inactive: [1] -0.004 | [2] 0.029 | [3] 0.011 | [4] 0.035 | [5] 0.037
